The source of these data is publication PMC2908686.

Chains of the proteins cited; added tags and fusions are not shown.
UniProt P10275: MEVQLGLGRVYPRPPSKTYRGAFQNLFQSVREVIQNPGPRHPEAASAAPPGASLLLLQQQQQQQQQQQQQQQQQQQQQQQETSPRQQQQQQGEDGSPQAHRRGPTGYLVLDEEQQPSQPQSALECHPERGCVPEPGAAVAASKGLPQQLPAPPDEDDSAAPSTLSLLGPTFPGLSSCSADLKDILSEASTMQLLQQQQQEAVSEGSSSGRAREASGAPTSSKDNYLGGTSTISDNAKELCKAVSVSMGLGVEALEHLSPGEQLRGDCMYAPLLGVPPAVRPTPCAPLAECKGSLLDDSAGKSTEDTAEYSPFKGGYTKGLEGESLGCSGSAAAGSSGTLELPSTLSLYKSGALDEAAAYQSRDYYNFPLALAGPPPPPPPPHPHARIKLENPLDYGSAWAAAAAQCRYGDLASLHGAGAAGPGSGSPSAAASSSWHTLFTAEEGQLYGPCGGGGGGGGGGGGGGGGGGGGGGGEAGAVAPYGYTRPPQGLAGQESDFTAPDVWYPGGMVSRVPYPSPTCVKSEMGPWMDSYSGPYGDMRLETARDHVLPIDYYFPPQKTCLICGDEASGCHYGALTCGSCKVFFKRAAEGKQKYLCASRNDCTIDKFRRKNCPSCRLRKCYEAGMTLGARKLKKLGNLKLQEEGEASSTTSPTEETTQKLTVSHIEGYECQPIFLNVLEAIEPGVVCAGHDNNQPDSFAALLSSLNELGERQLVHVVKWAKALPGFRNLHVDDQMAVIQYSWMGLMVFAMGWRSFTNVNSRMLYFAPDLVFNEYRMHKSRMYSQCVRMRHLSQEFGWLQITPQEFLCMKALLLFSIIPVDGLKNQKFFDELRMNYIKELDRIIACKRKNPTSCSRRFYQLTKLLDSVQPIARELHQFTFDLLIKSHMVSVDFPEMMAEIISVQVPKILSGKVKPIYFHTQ
UniProt P04150: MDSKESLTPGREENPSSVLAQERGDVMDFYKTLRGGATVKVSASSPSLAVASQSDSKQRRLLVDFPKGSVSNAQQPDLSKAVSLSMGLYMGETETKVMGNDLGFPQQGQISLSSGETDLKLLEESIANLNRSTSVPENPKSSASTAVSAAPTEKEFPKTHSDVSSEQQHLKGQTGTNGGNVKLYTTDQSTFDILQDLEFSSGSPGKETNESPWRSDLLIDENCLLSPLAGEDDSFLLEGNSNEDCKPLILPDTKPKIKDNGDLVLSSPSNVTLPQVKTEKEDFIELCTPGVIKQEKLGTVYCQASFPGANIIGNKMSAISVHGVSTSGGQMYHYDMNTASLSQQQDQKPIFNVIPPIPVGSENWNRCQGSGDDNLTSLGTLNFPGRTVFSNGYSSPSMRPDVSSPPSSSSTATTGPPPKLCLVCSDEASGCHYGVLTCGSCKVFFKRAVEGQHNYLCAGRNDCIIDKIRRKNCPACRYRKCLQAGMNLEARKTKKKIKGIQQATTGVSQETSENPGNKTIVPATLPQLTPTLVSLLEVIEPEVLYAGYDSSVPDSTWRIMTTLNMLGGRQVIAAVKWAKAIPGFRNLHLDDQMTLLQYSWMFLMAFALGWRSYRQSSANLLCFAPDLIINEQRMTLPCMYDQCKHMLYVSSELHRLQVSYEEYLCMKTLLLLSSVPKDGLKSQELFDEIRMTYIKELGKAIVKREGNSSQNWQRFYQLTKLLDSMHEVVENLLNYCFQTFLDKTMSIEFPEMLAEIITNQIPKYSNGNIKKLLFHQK
UniProt P08235: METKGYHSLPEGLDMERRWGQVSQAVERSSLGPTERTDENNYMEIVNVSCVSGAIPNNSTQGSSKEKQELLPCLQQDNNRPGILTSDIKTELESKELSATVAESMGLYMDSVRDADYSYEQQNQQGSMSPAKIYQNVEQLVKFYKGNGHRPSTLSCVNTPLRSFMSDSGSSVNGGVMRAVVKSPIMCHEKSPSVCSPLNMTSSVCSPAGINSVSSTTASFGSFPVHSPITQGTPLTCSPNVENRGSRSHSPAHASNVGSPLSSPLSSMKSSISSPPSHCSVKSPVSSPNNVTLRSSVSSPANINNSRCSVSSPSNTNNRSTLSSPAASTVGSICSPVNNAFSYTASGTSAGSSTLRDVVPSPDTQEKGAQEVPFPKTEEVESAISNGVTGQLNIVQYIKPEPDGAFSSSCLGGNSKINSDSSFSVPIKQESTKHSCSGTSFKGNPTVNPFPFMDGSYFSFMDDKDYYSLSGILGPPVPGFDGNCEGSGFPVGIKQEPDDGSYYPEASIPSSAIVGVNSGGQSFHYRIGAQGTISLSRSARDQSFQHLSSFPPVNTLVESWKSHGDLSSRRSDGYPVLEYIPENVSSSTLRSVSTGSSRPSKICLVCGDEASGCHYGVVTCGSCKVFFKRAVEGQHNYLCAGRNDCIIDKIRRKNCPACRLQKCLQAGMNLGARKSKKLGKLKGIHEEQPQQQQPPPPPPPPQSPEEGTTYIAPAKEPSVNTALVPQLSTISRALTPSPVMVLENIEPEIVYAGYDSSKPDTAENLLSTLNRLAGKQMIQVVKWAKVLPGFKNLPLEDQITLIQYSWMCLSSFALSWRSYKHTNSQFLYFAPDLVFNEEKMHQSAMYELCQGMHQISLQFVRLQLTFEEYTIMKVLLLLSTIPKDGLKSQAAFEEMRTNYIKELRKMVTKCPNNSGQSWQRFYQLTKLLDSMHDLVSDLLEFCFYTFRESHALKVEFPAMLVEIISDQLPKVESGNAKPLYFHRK
UniProt P06401: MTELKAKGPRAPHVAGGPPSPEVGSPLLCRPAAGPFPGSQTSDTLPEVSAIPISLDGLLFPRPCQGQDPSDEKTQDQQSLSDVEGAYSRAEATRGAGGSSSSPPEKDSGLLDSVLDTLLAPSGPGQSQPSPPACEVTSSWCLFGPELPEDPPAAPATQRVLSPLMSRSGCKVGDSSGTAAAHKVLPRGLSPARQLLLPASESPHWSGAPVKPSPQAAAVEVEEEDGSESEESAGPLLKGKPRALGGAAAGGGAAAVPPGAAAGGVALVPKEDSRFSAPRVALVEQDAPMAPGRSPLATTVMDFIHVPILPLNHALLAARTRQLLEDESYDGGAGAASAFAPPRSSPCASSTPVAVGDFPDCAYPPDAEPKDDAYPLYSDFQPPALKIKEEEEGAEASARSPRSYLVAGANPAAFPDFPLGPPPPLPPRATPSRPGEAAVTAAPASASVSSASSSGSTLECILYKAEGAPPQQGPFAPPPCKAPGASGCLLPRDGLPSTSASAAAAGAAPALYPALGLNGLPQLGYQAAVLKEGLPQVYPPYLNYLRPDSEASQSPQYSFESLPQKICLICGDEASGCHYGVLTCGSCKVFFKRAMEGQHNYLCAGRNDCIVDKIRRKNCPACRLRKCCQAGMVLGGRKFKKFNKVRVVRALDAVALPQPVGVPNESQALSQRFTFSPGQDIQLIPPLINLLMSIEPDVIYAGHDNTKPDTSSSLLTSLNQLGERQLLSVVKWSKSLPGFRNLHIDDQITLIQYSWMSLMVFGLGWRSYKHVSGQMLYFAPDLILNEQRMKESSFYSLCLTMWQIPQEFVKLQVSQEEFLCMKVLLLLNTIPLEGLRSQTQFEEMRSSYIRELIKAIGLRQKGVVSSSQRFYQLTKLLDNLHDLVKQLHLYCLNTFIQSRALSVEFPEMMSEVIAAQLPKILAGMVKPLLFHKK

These are yes or no findings as the source states them, for the method shown. Binding seen in cells or lysates may run through a third protein. Some binding calls cover weakened binding; strength is not graded here. Sequences can lack the tags named with a protein.

The labels stand for the following.
B1: hepatitis virus B X-associated protein 2 (XAP2), C-terminal FLAG fusion (protein, UniProt O00170 1-330)
chain: MADIIARLREDGIQKRVIQEGRGELPDFQDGTKATFHYRTLHSDDEGTVLDDSRARGKPMELIIGKKFKLPVWETIVCTMREGEIAQFLCDIKHVVLYPLVAKSLRNIAVGKDPLEGQRHCCGVAQMREHSSLGHADLDALQQNPQPLIFHMEMLKVESPGTYQQDPWAMTDEEKAKAVPLIHQEGNRLYREGHVKEAAAKYYDAIACLKNLQMKEQPGSPEWIQLDQQITPLLLNYCQCKLVVEEYYEVLDHCSSILNKYDDNVKAYFKRGKAHAAVWNAQEAQADFAKVLELDPALAPVVSRELRALEARIRQKDEEDKARFRGIFSH
B2: FK506 binding protein 51 (FKBP51), C-terminal FLAG fusion (protein, UniProt Q13451 1-457)
chain: MTTDEGAKNNEESPTATVAEQGEDITSKKDRGVLKIVKRVGNGEETPMIGDKVYVHYKGKLSNGKKFDSSHDRNEPFVFSLGKGQVIKAWDIGVATMKKGEICHLLCKPEYAYGSAGSLPKIPSNATLFFEIELLDFKGEDLFEDGGIIRRTKRKGEGYSNPNEGATVEIHLEGRCGGRMFDCRDVAFTVGEGEDHDIPIGIDKALEKMQREEQCILYLGPRYGFGEAGKPKFGIEPNAELIYEVTLKSFEKAKESWEMDTKEKLEQAAIVKEKGTVYFKGGKYMQAVIQYGKIVSWLEMEYGLSEKESKASESFLLAAFLNLAMCYLKLREYTKAVECCDKALGLDSANEKGLYRRGEAQLLMNEFESAKGDFEKVLEVNPQNKAARLQISMCQKKAKEHNERDRRIYANMFKKFAEQDAKEEANKAMGKKTSEGVTNEKGTDSQAMEEEKPEGHV
B3: tetratricopeptide repeat protein 2 (TPR2), C-terminal FLAG fusion (protein, UniProt Q99615 1-494)
chain: MAAAAECDVVMAATEPELLDDQEAKREAETFKEQGNAYYAKKDYNEAYNYYTKAIDMCPKNASYYGNRAATLMMLGRFREALGDAQQSVRLDDSFVRGHLREGKCHLSLGNAMAACRSFQRALELDHKNAQAQQEFKNANAVMEYEKIAETDFEKRDFRKVVFCMDRALEFAPACHRFKILKAECLAMLGRYPEAQSVASDILRMDSTNADALYVRGLCLYYEDCIEKAVQFFVQALRMAPDHEKACIACRNAKALKAKKEDGNKAFKEGNYKLAYELYTEALGIDPNNIKTNAKLYCNRGTVNSKLRKLDDAIEDCTNAVKLDDTYIKAYLRRAQCYMDTEQYEEAVRDYEKVYQTEKTKEHKQLLKNAQLELKKSKRKDYYKILGVDKNASEDEIKKAYRKRALMHHPDRHSGASAEVQKEEEKKFKEVGEAFTILSDPKKKTRYDSGQDLDEEGMNMGDFDPNNIFKAFFGGPGGFSFEASGPGNFFFQFG
B4: protein phosphatase 5 (PP5), C-terminal FLAG fusion (enzyme, UniProt P53041 1-499)
chain: MAMAEGERTECAEPPRDEPPADGALKRAEELKTQANDYFKAKDYENAIKFYSQAIELNPSNAIYYGNRSLAYLRTECYGYALGDATRAIELDKKYIKGYYRRAASNMALGKFRAALRDYETVVKVKPHDKDAKMKYQECNKIVKQKAFERAIAGDEHKRSVVDSLDIESMTIEDEYSGPKLEDGKVTISFMKELMQWYKDQKKLHRKCAYQILVQVKEVLSKLSTLVETTLKETEKITVCGDTHGQFYDLLNIFELNGLPSETNPYIFNGDFVDRGSFSVEVILTLFGFKLLYPDHFHLLRGNHETDNMNQIYGFEGEVKAKYTAQMYELFSEVFEWLPLAQCINGKVLIMHGGLFSEDGVTLDDIRKIERNRQPPDSGPMCDLLWSDPQPQNGRSISKRGVSCQFGPDVTKAFLEENNLDYIIRSHEVKAEGYEVAHGGRCVTVFSAPNYCDQMGNKASYIHLQGSDLRPQFHQFTAVPHPNVKPMAYANTLLQLGMM

The first experiment deals with androgen receptor (AR), N-terminally HA-tagged (UniProt P10275). The experiment is described as follows: co-IP; HEK-293 co-expressing an HA-tagged steroid receptor and a FLAG-tagged TPR protein, steroid-free serum; Lysis-Buffer A' (130 mM NaCl, 20 mM Na2MoO4, 20 mM Tris-HCl pH 7.5, 0.5% Triton X-100); receptor precipitated on anti-HA agarose overnight at 4°C, HA-peptide elution; co-precipitated TPR proteins by FLAG immunoblot, densitometry. In general terms: In western blotting, separated proteins are transferred to a membrane and probed.
As for B1, the binding result is listed as “binds”.

Turning to B2, the binding result is “binds”.

In the case of B3, the binding result was “binds”.

The target in a further experiment is glucocorticoid receptor (GR), N-terminally HA-tagged (UniProt P04150). The description is as above.
B4: the binding result is “binds”.

In the case of B1, the binding entry was “binds”.

For B2, the binding result is reported as “binds”.

Take B3: the binding entry is “binds”.

The next experiment has as its target mineralocorticoid receptor (MR), N-terminally HA-tagged (UniProt P08235). The description is as above.
On to B4, for which the binding entry is recorded as “binds”.

B1: the binding result is given as “binds”.

Consider B2, for which the binding result was “binds”.

For the molecule B3, the binding result was “binds”.

Another experiment has as its target progesterone receptor (PR), N-terminally HA-tagged (UniProt P06401). The description is as above.
As for B4, the binding result is reported as “binds weakly”.

For B1, the binding result is “binds weakly”.

Consider B2, for which the binding result was “binds”.

For the molecule B3, the binding entry is “binds”.
